We go through six molecules from the odorant receptor screen of Mainland et al. (2015).

Among the test systems are OR52N5 clone 1238; OR52P1 clone 1221; OR52W1 clone 1234; OR56A1 clone 1114; OR56A3 M51T clone 1128; OR56A4 clone 1724; OR56A5 clone 1708; OR56B1 C106R clone 1168; OR56B4 P277S clone 1224; OR5A1 I52V clone 1131; OR5A1 clone 1130; OR5A1 clone 1507; OR5A2 clone 1132; OR5AC2 M200I clone 1490; OR5AK2 M92I clone 1335; OR5AK2 clone 1438; OR5AK3 clone 1336; OR5AL1 clone 1362.
Experiment in all cases: odorant receptor activation (CRE luciferase / Renilla) (fold of no-odor wells); higher = more activation
Holding throughout (conditions): 100 µM

The subject of test [1] is OR52N4 T106I/L167R/N218I clone 1127.
Test [2] has as its system OR52R1 I129T/N201Y/S245A clone 1705.

Where “and” joins values, the source holds several entries; their conditions need not be identical. Equal values may be shown once. This is one part of the list. Single wells; the ratio to wells without odorant was worked out here, and repeats agree poorly.

In the case of `CC1CCC(C(C)C)C(O)C1` (single isomer, unassigned; (-)) [(-)-menthol], the odorant receptor activation in test [1] was 0.902; with OR52N5 clone 1238 it was 0.556; with OR52P1 clone 1221 it was 0.999; in test [2] it was 1.13; with OR52W1 clone 1234 it was 1.28; in the test on OR56A1 clone 1114, 14.9. The odorant receptor activation in the test on OR56A3 M51T clone 1128 was determined as 1.23; in the test with OR56A4 clone 1724, 1; in the test on OR56A5 clone 1708 it was 0.986; with OR56B1 C106R clone 1168 it was 0.874; in the test on OR56B4 P277S clone 1224, 0.892; in the test with OR5A1 I52V clone 1131, 1.02. The odorant receptor activation in the test with OR5A1 clone 1130 stood at 1.17; in the test with OR5A1 clone 1507, 2.8; in the test with OR5A2 clone 1132, 1.19; in the test on OR5AC2 M200I clone 1490, 1.15; with OR5AK2 M92I clone 1335, 0.752; with OR5AK2 clone 1438, 0.971. In addition, the odorant receptor activation in the test with OR5AK3 clone 1336 was determined as 0.692; in the test on OR5AL1 clone 1362, 0.716.

For the molecule `COC(=O)c1ccccc1O` [methyl salicylate], the odorant receptor activation stood at 0.917 in test [1]; 0.823 in the test on OR52N5 clone 1238; 1.01 with OR52P1 clone 1221; 1.1 in [2]; 0.67 in the test on OR52W1 clone 1234; 1.01 in the test on OR56A1 clone 1114. For the same molecule, the odorant receptor activation in the test on OR56A3 M51T clone 1128 was determined as 1.08; in the test on OR56A4 clone 1724, 0.679; in the test on OR56A5 clone 1708, 1.15; in the test on OR56B1 C106R clone 1168, 0.718; in the test with OR56B4 P277S clone 1224 it was 0.792; in the test with OR5A1 I52V clone 1131, 0.817. Also, the odorant receptor activation with OR5A1 clone 1130 was 0.885; in the test with OR5A1 clone 1507, 1.22; with OR5A2 clone 1132, 0.764; in the test with OR5AC2 M200I clone 1490, 0.986; in the test with OR5AK2 M92I clone 1335, 0.944; with OR5AK2 clone 1438, 1.49. Moreover, the results for the odorant receptor activation with OR5AK3 clone 1336 and in the test with OR5AL1 clone 1362 were 0.864 and 1.12, respectively.

Regarding `CC/C=C\CCO` [cis-3-hexen-1-ol], the odorant receptor activation in test [1] was 0.809; in the test on OR52N5 clone 1238, 0.78; with OR52P1 clone 1221, 1.04; in test [2] it was 1.13; with OR52W1 clone 1234 it was 1.07; in the test on OR56A1 clone 1114, 0.8. Further, the odorant receptor activation is 1.01 in the test with OR56A3 M51T clone 1128; 0.843 with OR56A4 clone 1724; 1.16 in the test with OR56A5 clone 1708; 1.16 with OR56B1 C106R clone 1168; 1.16 in the test with OR56B4 P277S clone 1224; 0.973 with OR5A1 I52V clone 1131. The odorant receptor activation in the test with OR5A1 clone 1130 amounted to 0.965; in the test with OR5A1 clone 1507, 0.868; in the test on OR5A2 clone 1132 it was 0.911; with OR5AC2 M200I clone 1490 it was 0.932; in the test with OR5AK2 M92I clone 1335 it was 0.822; in the test on OR5AK2 clone 1438, 0.232. The odorant receptor activation with OR5AK3 clone 1336 amounted to 1.12; in the test with OR5AL1 clone 1362, 0.22.

In the case of `O=CCc1ccccc1` [phenyl acetaldehyde], the odorant receptor activation in [1] was found to be 1.31; in the test with OR52N5 clone 1238, 1.93; in the test on OR52P1 clone 1221, 0.962; in [2], 1.02; with OR52W1 clone 1234, 1.06; in the test with OR56A1 clone 1114 it was 1.47. Also, the odorant receptor activation with OR56A3 M51T clone 1128 was determined as 1.29; in the test with OR56A4 clone 1724, 0.987; in the test on OR56A5 clone 1708, 0.964; with OR56B1 C106R clone 1168 it was 1.49; with OR56B4 P277S clone 1224, 1.17; with OR5A1 I52V clone 1131, 0.917. Further, the odorant receptor activation turned out to be 1.44 with OR5A1 clone 1130; 1.03 in the test on OR5A1 clone 1507; 1.29 with OR5A2 clone 1132; 1.35 in the test on OR5AC2 M200I clone 1490; 1.2 in the test with OR5AK2 M92I clone 1335; 1.58 in the test on OR5AK2 clone 1438. Besides, the odorant receptor activation with OR5AK3 clone 1336 was determined as 1.57; in the test on OR5AL1 clone 1362 it was 1.6.

Consider `CC(=O)C(C)=O` [diacetyl], for which the odorant receptor activation in [1] was 1.06; in the test with OR52N5 clone 1238 it was 0.944; with OR52P1 clone 1221, 1.1; in [2], 0.726; in the test with OR52W1 clone 1234, 1.18; in the test with OR56A1 clone 1114 it was 0.846. The odorant receptor activation turned out to be 0.992 in the test on OR56A3 M51T clone 1128; 0.793 with OR56A4 clone 1724; 0.885 in the test with OR56A5 clone 1708; 0.979 in the test on OR56B1 C106R clone 1168; 1.31 in the test with OR56B4 P277S clone 1224; 1.11 with OR5A1 I52V clone 1131. The odorant receptor activation in the test on OR5A1 clone 1130 amounted to 1.13; with OR5A1 clone 1507 it was 1.39; in the test with OR5A2 clone 1132 it was 1.31; in the test with OR5AC2 M200I clone 1490 it was 1.26; in the test on OR5AK2 M92I clone 1335 it was 1.16; in the test on OR5AK2 clone 1438 it was 1.55. For the same molecule, the figures for the odorant receptor activation in the test on OR5AK3 clone 1336 and with OR5AL1 clone 1362 were 1.14 and 1.43, respectively.

On to `COc1ccccc1O` [guaiacol], for which the odorant receptor activation in [1] was 1.31; in the test on OR52N5 clone 1238, 0.971; in the test with OR52P1 clone 1221, 1.13; in test [2], 0.766; in the test with OR52W1 clone 1234, 0.839; in the test with OR56A1 clone 1114, 1.6. Besides, the odorant receptor activation came to 1.3 with OR56A3 M51T clone 1128; 0.809 with OR56A4 clone 1724; 0.593 in the test with OR56A5 clone 1708; 1.13 in the test with OR56B1 C106R clone 1168; 0.914 in the test on OR56B4 P277S clone 1224; 0.983 in the test on OR5A1 I52V clone 1131. Besides, the odorant receptor activation is 0.92 with OR5A1 clone 1130; 0.775 and 1.11 with OR5A1 clone 1507; 0.985 with OR5A2 clone 1132; 0.673 and 0.95 with OR5AC2 M200I clone 1490; 1.94 and 1.1 in the test on OR5AK2 M92I clone 1335; 0.805 in the test with OR5AK2 clone 1438. In addition, the odorant receptor activation in the test with OR5AK3 clone 1336 is 1.47 and 0.758; with OR5AL1 clone 1362, 0.825.
